Test results as given in doi:10.1101/2024.03.03.583214.
These are yes or no findings as the source states them, for the method shown. In cells and extracts the contact can be indirect. Some binding calls cover weakened binding; strength is not graded here. For some assays here: Where a sequence is shown, tags or fusion partners need not be part of it.

What was measured:
Yhb1-Cherry (S. pombe) = molecular target: T1, Yhb1-Cherry (S. pombe) (UniProt Q9URY5); assay: co-IP
T1 sequence: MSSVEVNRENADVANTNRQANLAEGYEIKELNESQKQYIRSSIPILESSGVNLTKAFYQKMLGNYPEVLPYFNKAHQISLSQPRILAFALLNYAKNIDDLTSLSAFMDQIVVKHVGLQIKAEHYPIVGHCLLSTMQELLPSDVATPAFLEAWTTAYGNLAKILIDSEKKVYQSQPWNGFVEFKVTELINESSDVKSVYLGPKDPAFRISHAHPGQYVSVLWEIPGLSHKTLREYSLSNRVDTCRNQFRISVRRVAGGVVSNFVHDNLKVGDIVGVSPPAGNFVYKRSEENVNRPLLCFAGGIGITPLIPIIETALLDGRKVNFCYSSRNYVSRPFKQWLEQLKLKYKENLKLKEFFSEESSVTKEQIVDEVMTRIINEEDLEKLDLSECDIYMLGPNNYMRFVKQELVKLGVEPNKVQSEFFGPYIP

Yhb1-VN (S. pombe) = molecular target: T2, Yhb1-VN (S. pombe) (UniProt Q9URY5); assay: split reporter
T2 sequence: T1 sequence

B1: Str3-GFP (protein, UniProt Q92341 1-630)
chain: MEAKETHSISDHEVELQDAKPEEKSENGNFVFEKAFSSDEEKGSGYNTNETYSKMDNSLQHRGVSKIEAVRDSIYQNKRGMYLAYAFGIAILACSWASAIQSSTTYSYQVYATASFNRTSMISTLEIATAIISSVCKPILGKFSDITSRPMTYTLVLLFYVIGFIVVASSSTISAYVIGSVFISIGSSGLDYLNTLVVGDLTSLKWRGFMTALLSTPYIATVWFTGFIVQGIIDSNWRWGYGMFAIIMPAVMTPAVIILMYLERQANKDENIKKIINYQTEEKNKNKQSKWQKLWKAVLEVDLFGLILLGVGWSILLLPFSLTSYAKNGWKNPSMIAMMVVGGVILIAYSGYEMFIAPYPSCPRRVMNRTFITAVIIDFFYYLAGYLQSMYFTTYTWILYDWSYRDWTYFNNTMTIALCVFGVFAGAMHRVFHRYKYLQIIGLVIKIVGYGILIRPNFAATGKVDLAWSLILIGMGGSFSVVGSQVSCQASVPHQDLAIASSLLPLYTNIGGAIGAAIASPIFSNKVPKYLREYLPSSINDTQVYNFYSDSSLIREYPVGTEIRDGAIKAYSRSMFFLLVPAVSLSFIPLAAAFWQSNFYLGNQQNAVEGDQDHKKKGDKETTQEEKIII
B1 was tested, and the binding (Yhb1-Cherry (S. pombe)) was “binds”.

B2: Str3-VC (protein, UniProt Q92341 1-630)
chain: B1 chain
B2 was tested, and the binding (Yhb1-VN (S. pombe)) was “binds”.
